The results in this text go back to the supplement of paper PMC10735217.

For this test, the system named is HEK293A TEAD-LUC reporter. Kind of test: TEAD-luciferase reporter activity (YAP activation), robust Z score vs plate; higher = stronger YAP/TEAD activation. Conditions: 24 h.

Where a name gives a salt, the structure may show the parent alone. The list shows a part of the results. Single values are uncertain here, since repeats match poorly.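 The human kidney-derived cells carry a stably integrated construct of eight TEAD-binding elements driving luciferase, read by luminescence in a drug-repurposing library screen. A compound counts as a hit when its signal is more than five robust Z scores above the plate mean.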

On to `CC(C)c1ccc2c(c1)C(N1CCN(CCO)CC1)Cc1ccc(F)cc1S2` (stereo not given) [isofloxythepin], for which the TEAD-luciferase reporter activity was inactive: -2.67 (compound concentration: 200 nM), inactive: -1.06 (compound concentration: 2 uM) and inactive: 1.39 (compound concentration: 10 uM).

Regarding `CCOC[C@]12Cc3cnn(-c4ccc(F)cc4)c3C=C1CCN(S(=O)(=O)c1ccc(C(F)(F)F)cc1)C2`, the TEAD-luciferase reporter activity by setting is: (compound concentration: 200 nM) inactive: -0.825; (compound concentration: 2 uM) inactive: 0.6; (compound concentration: 10 uM) inactive: 0.574.

As for `CCSCc1ccc2c(c1)c1c3c(c4c5cc(CSCC)ccc5n5c4c1n2[C@H]1C[C@](O)(C(=O)OC)[C@]5(C)O1)CNC3=O`, the TEAD-luciferase reporter activity is inactive: 2.05 (compound concentration: 200 nM), active: 13.9 (compound concentration: 2 uM) and active: 19.3 (compound concentration: 10 uM).

Regarding `COc1cc(C(=O)O)ccc1NC(=O)[C@@H]1N[C@@H](CC(C)(C)C)[C@](C#N)(c2ccc(Cl)cc2F)[C@H]1c1cccc(Cl)c1F`, the TEAD-luciferase reporter activity runs as follows: (compound concentration: 200 nM) inactive: -0.34; (compound concentration: 2 uM) inactive: -1.19; (compound concentration: 10 uM) inactive: 2.27.

Turning to `COc1ccc(C(=O)N2CCC3(Cc4ccccc4NC3=O)C2)cc1` (stereo not given), the TEAD-luciferase reporter activity was inactive: 4.6 (compound concentration: 200 nM) and inactive: -1.07 (compound concentration: 10 uM).

`COc1cccc(-c2cccc(C(=O)N3CCCC3C(=O)NCc3ccc4c(c3)OCO4)c2)c1` (stereo not given): the TEAD-luciferase reporter activity is, setting by setting: (compound concentration: 200 nM) inactive: 0.0169; (compound concentration: 10 uM) inactive: -1.28.

Take `CC1(C)OC[C@@H](COC(=O)CCc2ccc(OC[C@@H](O)CNCCNC(=O)N3CCOCC3)cc2)O1` [landiolol hydrochloride]: the TEAD-luciferase reporter activity was inactive: -0.979 (compound concentration: 200 nM), inactive: 0.384 (compound concentration: 2 uM) and inactive: 3.37 (compound concentration: 10 uM).

For the compound `CC1=C(C(=O)O)N2C(=O)[C@@H](NC(=O)[C@H](N)c3ccc4ccccc4c3)[C@H]2SC1`, the TEAD-luciferase reporter activity (compound concentration: 200 nM) is inactive: -0.453, the TEAD-luciferase reporter activity (compound concentration: 2 uM) is inactive: 0.517 and the TEAD-luciferase reporter activity (compound concentration: 10 uM) is inactive: 2.09.

For `COc1cc(F)ccc1-c1ncnc(Nc2cccc(CS(C)(=N)=O)c2)n1` (stereo not given), the TEAD-luciferase reporter activity was inactive: -1.33 (compound concentration: 200 nM), active: 9.43 (compound concentration: 2 uM) and inactive: 1.29 (compound concentration: 10 uM).

Take `C[C@@H](O)[C@H]1C(=O)N2C(C(=O)OCOC(=O)C(C)(C)C)=C(SC3CN(C4=NCCS4)C3)[C@H](C)[C@H]12` [tebipenem pivoxil]: the TEAD-luciferase reporter activity reads like this: (compound concentration: 200 nM) inactive: -0.26; (compound concentration: 2 uM) inactive: -0.233; (compound concentration: 10 uM) inactive: -1.99.

As to `C=CCN1CCCC1CNC(=O)c1cc2nn[nH]c2cc1OC` (stereo not given) [alizapride], the TEAD-luciferase reporter activity (compound concentration: 200 nM) was inactive: -0.747, the TEAD-luciferase reporter activity (compound concentration: 2 uM) was inactive: -1.71 and the TEAD-luciferase reporter activity (compound concentration: 10 uM) was inactive: 0.442.

For the compound `CN1C(C)(C)CC(OC(=O)CCCCCCCCC(=O)OC2CC(C)(C)N(C)C(C)(C)C2)CC1(C)C`, the TEAD-luciferase reporter activity by setting is: (compound concentration: 200 nM) inactive: -0.251; (compound concentration: 2 uM) inactive: -0.899; (compound concentration: 10 uM) inactive: -1.22.

Consider `O=C1NCCN1c1ncc([N+](=O)[O-])s1`, for which the TEAD-luciferase reporter activity reads like this: (compound concentration: 200 nM) inactive: -0.863; (compound concentration: 2 uM) inactive: -1.3; (compound concentration: 10 uM) inactive: -1.91.

Take `COCc1c(-c2cc3cc(C)cc(OC)c3s2)c2c(N)ncnn2c1CN1CCNC(=O)C1` [Rogaratinib]: the TEAD-luciferase reporter activity is inactive: -0.984 (compound concentration: 200 nM), inactive: -1.15 (compound concentration: 2 uM) and inactive: -0.475 (compound concentration: 10 uM).
